Laboratory results: PMC519002

Chains of the proteins cited; added tags and fusions are not shown. Lines headed by an entry give the natural chain unless they say otherwise; changes in a name come on top.
UniProt P40075: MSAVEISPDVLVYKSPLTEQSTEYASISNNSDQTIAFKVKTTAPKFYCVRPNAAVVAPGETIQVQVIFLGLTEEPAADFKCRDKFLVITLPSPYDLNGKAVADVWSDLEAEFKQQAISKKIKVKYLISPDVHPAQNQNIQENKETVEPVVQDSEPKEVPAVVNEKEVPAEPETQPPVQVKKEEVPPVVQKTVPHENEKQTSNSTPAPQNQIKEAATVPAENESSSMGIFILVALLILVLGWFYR

Molecular target: T1, myc-tagged Opi1 (S. cerevisiae (endogenous locus, strains derived from CRY1)) (UniProt P21957)
T1 sequence: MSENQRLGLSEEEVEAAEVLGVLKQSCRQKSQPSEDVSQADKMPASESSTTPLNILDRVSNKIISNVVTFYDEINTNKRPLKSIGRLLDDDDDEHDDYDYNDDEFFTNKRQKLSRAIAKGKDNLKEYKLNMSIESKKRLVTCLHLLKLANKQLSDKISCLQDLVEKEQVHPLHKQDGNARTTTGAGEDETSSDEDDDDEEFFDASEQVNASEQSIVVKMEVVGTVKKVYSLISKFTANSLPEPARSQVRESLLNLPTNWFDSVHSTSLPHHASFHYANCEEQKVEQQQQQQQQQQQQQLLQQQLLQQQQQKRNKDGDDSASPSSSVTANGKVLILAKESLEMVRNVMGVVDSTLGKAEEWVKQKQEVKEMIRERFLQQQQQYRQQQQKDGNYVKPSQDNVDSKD
Test: affinity purification with mass spectrometry; microsomal fraction solubilized with 3% Triton X-100 in IP buffer; anti-myc agarose 4 h at 4 °C, ten washes; SDS-PAGE, colloidal blue stain, band excised and identified by MALDI mass spectrometry; untagged strain as control

Scs2 (from UniProt P40075)
binding: binds

Results are given in words; binding and its absence hold for the method and conditions named. In cells and extracts the contact can be indirect. Here binding means that the protein was enriched with, or labelled near, the bait; the list need not be complete. Where a sequence is shown, tags or fusion partners need not be part of it.
